Source: PMC7350202
Results are given in words; binding and its absence hold for the method and conditions named. Binding seen in cells or lysates may run through a third protein. Some binding calls cover weakened binding; strength is not graded here.

Sequences of proteins named here, by UniProt entry; tags and fusion partners are left off.
UniProt P03372: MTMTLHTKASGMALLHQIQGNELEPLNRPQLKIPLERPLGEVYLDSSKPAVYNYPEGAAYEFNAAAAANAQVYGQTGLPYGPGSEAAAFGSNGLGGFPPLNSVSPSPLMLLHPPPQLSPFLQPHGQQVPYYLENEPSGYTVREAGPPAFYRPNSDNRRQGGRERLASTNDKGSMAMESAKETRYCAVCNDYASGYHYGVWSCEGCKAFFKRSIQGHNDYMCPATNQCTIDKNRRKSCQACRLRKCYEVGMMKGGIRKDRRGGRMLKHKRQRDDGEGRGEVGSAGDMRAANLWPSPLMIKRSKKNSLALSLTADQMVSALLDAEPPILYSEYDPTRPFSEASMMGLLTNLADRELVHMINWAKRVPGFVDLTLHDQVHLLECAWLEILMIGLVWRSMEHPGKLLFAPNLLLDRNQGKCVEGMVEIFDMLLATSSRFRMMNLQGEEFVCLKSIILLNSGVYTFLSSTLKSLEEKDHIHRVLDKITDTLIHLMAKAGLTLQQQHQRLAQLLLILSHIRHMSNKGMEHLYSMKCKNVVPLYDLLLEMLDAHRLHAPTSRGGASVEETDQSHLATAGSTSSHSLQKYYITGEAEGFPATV

Target: Estrogen receptor alpha (human (endogenous in MCF-7)) (UniProt P03372)
Assay: proximity ligation; Duolink PLA on fixed, permeabilised MCF-7 cells with anti-FXR and anti-ER primary antibodies; cells in steroid-free medium, untreated control or CDCA 2 10^-5 M for 30 s to 1 h; confocal microscopy, signal quantified by image analysis on four independent cultures

binding: binds
B1: Farnesoid X receptor (protein, UniProt Q96RI1 1-486)
chain: MVMQFQGLENPIQISPHCSCTPSGFFMEMMSMKPAKGVLTEQVAGPLGQNLEVEPYSQYSNVQFPQVQPQISSSSYYSNLGFYPQQPEEWYSPGIYELRRMPAETLYQGETEVAEMPVTKKPRMGASAGRIKGDELCVVCGDRASGYHYNALTCEGCKGFFRRSITKNAVYKCKNGGNCVMDMYMRRKCQECRLRKCKEMGMLAECMYTGLLTEIQCKSKRLRKNVKQHADQTVNEDSEGRDLRQVTSTTKSCREKTELTPDQQTLLHFIMDSYNKQRMPQEITNKILKEEFSAEENFLILTEMATNHVQVLVEFTKKLPGFQTLDHEDQIALLKGSAVEAMFLRSAEIFNKKLPSGHSDLLEERIRNSGISDEYITPMFSFYKSIGELKMTQEEYALLTAIVILSPDRQYIKDREAVEKLQEPLLDVLQKLCKIHQPENPQHFACLLGRLTELRTFNHHHAEMLMSWRVNDHKFTPLLCEIWDVQ
